Results on four molecules are retold here after publication PMC9649703.

Chains of the proteins cited; added tags and fusions are not shown.
UniProt Q9P2H5: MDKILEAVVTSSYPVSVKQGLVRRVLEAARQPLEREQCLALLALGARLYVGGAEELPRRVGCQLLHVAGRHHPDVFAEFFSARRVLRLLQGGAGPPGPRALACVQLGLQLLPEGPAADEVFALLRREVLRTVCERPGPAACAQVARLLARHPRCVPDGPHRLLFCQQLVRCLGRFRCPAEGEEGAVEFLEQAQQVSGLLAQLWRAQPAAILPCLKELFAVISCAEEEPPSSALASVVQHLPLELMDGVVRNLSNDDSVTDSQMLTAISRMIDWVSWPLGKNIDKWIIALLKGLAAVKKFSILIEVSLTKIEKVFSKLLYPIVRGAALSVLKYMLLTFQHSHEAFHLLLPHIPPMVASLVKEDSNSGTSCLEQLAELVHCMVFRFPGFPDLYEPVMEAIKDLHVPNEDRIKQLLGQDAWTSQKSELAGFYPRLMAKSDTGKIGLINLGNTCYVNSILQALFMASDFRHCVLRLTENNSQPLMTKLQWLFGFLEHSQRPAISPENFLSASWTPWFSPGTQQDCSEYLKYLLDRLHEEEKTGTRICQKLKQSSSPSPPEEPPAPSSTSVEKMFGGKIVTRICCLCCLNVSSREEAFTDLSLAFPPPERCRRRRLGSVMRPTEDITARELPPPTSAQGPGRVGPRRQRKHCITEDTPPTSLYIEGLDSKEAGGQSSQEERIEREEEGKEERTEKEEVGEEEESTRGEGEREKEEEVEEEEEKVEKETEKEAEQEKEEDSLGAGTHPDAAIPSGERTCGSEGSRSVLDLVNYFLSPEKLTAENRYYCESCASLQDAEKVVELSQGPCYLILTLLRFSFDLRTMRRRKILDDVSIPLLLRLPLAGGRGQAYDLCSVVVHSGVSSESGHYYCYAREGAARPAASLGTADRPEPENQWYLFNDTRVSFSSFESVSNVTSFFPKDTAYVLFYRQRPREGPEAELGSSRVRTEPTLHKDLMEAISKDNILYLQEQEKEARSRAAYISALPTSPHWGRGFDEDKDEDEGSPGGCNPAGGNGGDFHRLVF
UniProt P55201: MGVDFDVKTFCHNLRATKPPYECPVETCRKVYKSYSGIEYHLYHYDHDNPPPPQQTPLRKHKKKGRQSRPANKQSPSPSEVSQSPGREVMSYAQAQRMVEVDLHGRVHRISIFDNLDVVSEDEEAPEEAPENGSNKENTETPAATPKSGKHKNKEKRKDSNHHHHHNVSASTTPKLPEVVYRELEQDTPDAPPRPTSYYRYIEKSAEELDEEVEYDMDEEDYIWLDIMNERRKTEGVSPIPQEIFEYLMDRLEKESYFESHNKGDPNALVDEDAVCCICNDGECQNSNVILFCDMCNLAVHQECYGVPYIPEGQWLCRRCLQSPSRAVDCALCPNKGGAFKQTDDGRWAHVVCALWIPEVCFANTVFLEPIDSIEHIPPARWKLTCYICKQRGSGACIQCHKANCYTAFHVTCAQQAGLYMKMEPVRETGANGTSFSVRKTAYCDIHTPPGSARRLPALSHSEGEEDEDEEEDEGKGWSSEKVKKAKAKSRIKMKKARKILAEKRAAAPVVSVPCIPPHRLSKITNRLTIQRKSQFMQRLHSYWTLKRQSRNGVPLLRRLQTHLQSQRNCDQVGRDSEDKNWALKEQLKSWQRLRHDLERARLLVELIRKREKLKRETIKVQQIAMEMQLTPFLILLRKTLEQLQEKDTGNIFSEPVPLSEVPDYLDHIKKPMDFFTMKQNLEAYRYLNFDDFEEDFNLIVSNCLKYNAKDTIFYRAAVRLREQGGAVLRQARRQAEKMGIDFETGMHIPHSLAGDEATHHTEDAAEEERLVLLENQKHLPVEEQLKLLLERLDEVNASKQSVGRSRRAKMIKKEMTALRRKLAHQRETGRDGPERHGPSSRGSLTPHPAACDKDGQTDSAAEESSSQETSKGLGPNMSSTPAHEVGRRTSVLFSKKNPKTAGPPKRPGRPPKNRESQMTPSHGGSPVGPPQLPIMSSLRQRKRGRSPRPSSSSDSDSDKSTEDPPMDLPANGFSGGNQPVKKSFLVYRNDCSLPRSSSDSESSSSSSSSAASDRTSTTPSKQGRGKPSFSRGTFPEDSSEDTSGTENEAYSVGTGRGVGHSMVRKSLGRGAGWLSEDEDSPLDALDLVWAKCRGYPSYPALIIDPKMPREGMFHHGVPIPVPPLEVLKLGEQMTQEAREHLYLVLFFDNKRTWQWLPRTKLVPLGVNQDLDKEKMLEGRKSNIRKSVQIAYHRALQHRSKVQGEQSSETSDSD
UniProt Q9UM11: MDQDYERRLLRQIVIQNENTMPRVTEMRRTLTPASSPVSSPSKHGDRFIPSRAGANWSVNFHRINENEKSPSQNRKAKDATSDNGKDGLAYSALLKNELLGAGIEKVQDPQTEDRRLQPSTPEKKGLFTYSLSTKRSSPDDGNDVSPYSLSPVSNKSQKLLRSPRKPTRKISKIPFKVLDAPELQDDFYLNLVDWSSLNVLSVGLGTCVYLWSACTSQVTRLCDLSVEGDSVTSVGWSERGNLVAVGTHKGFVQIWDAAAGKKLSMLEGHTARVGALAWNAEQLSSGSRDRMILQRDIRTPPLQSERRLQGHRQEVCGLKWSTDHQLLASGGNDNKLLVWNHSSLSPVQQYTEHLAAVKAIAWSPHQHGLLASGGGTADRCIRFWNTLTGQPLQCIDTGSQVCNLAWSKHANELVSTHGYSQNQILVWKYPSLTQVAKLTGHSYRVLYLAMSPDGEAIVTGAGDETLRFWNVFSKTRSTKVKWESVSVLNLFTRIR
UniProt Q7Z434: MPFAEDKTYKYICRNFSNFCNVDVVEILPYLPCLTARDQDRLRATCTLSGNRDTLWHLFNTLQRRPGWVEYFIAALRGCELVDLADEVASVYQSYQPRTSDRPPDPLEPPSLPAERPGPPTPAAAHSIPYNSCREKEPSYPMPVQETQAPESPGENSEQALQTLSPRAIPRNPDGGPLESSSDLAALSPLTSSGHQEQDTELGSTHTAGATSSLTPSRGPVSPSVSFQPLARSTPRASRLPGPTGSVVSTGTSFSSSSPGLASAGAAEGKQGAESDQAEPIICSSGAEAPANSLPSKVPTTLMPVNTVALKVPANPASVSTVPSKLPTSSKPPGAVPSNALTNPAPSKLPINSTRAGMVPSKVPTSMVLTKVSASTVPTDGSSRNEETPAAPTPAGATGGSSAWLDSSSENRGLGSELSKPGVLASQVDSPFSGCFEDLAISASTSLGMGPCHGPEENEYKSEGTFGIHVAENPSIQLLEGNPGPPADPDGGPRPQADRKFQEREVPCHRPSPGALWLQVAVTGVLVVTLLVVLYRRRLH

Sequences and labels used below:
B1: TNIP2 (protein, UniProt Q8NFZ5 1-429)
chain: MSRDPGSGGWEEAPRAAAALCTLYHEAGQRLRRLQDQLAARDALIARLRARLAALEGDAAPSLVDALLEQVARFREQLRRQEGGAAEAQMRQEIERLTERLEEKEREMQQLLSQPQHEREKEVVLLRRSMAEGERARAASDVLCRSLANETHQLRRTLTATAHMCQHLAKCLDERQHAQRNVGERSPDQSEHTDGHTSVQSVIEKLQEENRLLKQKVTHVEDLNAKWQRYNASRDEYVRGLHAQLRGLQIPHEPELMRKEISRLNRQLEEKINDCAEVKQELAASRTARDAALERVQMLEQQILAYKDDFMSERADRERAQSRIQELEEKVASLLHQVSWRQDSREPDAGRIHAGSKTAKYLAADALELMVPGGWRPGTGSQQPEPPAEGGHPGAAQRGQGDLQCPHCLQCFSDEQGEELLRHVAECCQ

No constants are given. Whether binding was seen depends on the method and setting. Binding seen in cells or lysates may run through a third protein. A yes stands for co-enrichment or nearness to the bait. Other partners may have been found.

The target in the assay is FLAG-HA-USP35 (UniProt Q9P2H5). In words: affinity purification with mass spectrometry; Tandem Affinity Purification (TAP): lysate of C4-2b cells with FLAG-HA-USP35, treated with 10 μM MG132 for 4 h, immunoprecipitated with anti-FLAG and anti-HA beads; silver staining; peptides in the complex identified.
On to BRPF1 (from UniProt P55201 1-1214), for which the binding entry is “binds”.

On to FZR1 (from UniProt Q9UM11 1-496), for which the binding entry is “binds”.

Regarding MAVS (from UniProt Q7Z434 1-540), the binding result is reported as “binds”.

For the molecule B1, the binding result is reported as “binds”.
